The list shows a part of the results.
B1: il2ra_site2_2erj_normal_mot_HHH_b2_02430_000000062_0001_23_40_H_._afa99cb2f1b48a14133d328b841439c2_0001_af2_0001_0000100009_0000001_0 (protein)
chain: SEEAEERARELAGGDLELAFLILAALANLRAGVPPEEIEKLLRRSAEEAGIPPEKVEQALELAEP
B2: il2ra_site1_1z92_sap_13_mot_HHH_b1_00368_000000203_0001_23_39_H_._HHH_b1_04173_af2_0001_0000100007_0000001_0_0001 (protein)
chain: SSSSSSELIWKAMREAQELVREGNEEEARRLLEEVAEELERQNNPAAVKQIERLLRLLEGSSSSS
B3: il2ra_site2_3nfp_sap_17_mot_HHH_b2_07840_000000026_0001_18_34_H_._HHH_b2_07529_0001_0000700032_0000001_0_0001 (protein)
chain: SSSSSEAEEYLEAALLLLERAIELGDKEAFESTLEAVRLAAESNNDEEVEKRVEELEKEFKSSSS
B4: il2ra_site2_2erj_normal_mot_HHH_b1_01029_000000103_0001_43_57_H_._HHH_b2_05337_af2_0001_0000400037_0000001_0 (protein)
chain: SSSSSDWLEELYRLLEEIMRLLAEGNHEEAERLLEELKELAKKADSLAAEEVAELLEQHLSSSSS
B5: il2ra_site2_2erj_sap_19_mot_HHH_b2_06912_000000039_0001_38_52_H_._HHH_b1_00662_af2_0001_0000900011_0000001_0_0001 (protein)
chain: SSSSDVEEEVERLLEEAKEAYKEGDLHEVYRLVVEALHLASKNQDPELLKLVAKVFEELQSSSSS
B6: il2ra_site2_2erj_normal_mot_HHH_b1_02757_000000121_0001_41_57_H_._HHH_b2_06164_0001_0000400025_0000001_0_af2pred_0001_1_af2pred_swapped (protein)
chain: SSSSSSDAEERLRELLEEARHIKDPREALKVLQEAAEIASEYHDPELLELVLEAAREQSSSSSSS
B7: il2ra_site1_2b5i_normal_mot_2cbe48e66a1f39b3fed734b245ab0a04_0001_000000015_0001_17_31_H_._HHH_b2_07141_0001_0000300013_0000001_0_af2pred_dldesign_0_af2pred (protein)
chain: SSSSSDPEEVRRRVEELLERARELPDIAEAERVLYEALFVARKGRDEELIARVEEEYKRLSSSSS
B8: il2ra_site2_3nfp_sap_27_mot_HHH_b1_02173_000000190_0001_1_18_H_._HHH_b1_03048_0001_0000200006_0000001_0_0001 (protein)
chain: SSSSSEEREFRRAVESALRFAKRTPDEELRRSALEWARAAALMLGDPELERLVEEVAEELSSSSS
B9: il2ra_site2_2erj_normal_mot_HHH_b2_00484_af2_000000139_0001_42_55_H_._HHH_b2_04766_af2_0001_0000300006_0000001_0 (protein)
chain: SSSSSKEAWELAARASIEALELYKRGNPEEAERLLEEALEEVEKLGDEIAARYLEHARRHLSSSS
B10: il2ra_site1_2b5i_normal_mot_f5ff40796168375b462bec8614a1db4a_0001_1_000000138_0001_53_65_H_._HHH_b2_03702_0001_0000200025_0000001_0_af2pred_dldesign_0_af2pred (protein)
chain: SSSSSSDTRELIDELLAEAARLEDERLRKKLLLLARDIARKAGDEERVAELERLLAELESSSSSS
B11: il2ra_site1_2b5i_sap_9_mot_HHH_b1_06258_af2_000000112_0001_42_56_H_._HHH_b1_08418_af2_0001_0000200024_0000001_0_0001_af2pred_0001_af2pred_1 (protein)
chain: TERRRIIELLDEAAKHVPPEVFELLLRVLRLLARGDPEEARKLLEEAIELVGDPLLKEALELLEK
B12: il2ra_site1_2b5i_normal_mot_0e5a94e4a5addaac739760efb25f0f5d_0001_000000289_0001_18_32_H_._39ed66e5fba071e4f274ea7f2cf018e6_0001_af2_0001_0000400019_0000001_0_a … (protein)
chain: SPALDALYDAAQAAGDKKLMKLTIKARYLQEIGAAPEEIKAWLRRYAERHGVPEEHLEAVAEALE
B13: il2ra_site1_2b5i_normal_mot_0e5a94e4a5addaac739760efb25f0f5d_0001_000000208_0001_18_32_H_._HHH_b2_05387_af2_0001_0000100003_0000001_0_af2pred_dldesign_0_af2pred (protein)
chain: SSSSDVEKAKKLLEEAKAALEAGRPEEARRLLEEAAKIALDSDDVELKTEIVKLLHRVRLSSSSS
B14: il2ra_site2_3nfp_sap_21_mot_HHH_b1_04032_000000208_0001_43_56_H_._HHH_b2_02520_af2_0001_0000400008_0000001_0_0001_af2pred_0001_af2pred (protein)
chain: SSSSSEEVEELIERVEELLKKGDVEEAHRVLKEAAKLAREAGDEELFLELLLLLRLVRRLESSSS
B15: il2ra_site2_2erj_normal_mot_HHH_b2_08364_000000146_0001_1_19_H_._HEEHE_1265_af2_0001_0000100004_0000001_1_af2pred_0001_af2pred (protein)
chain: DDKLLVEVAIEAVARKAGIPSIEVEVSNGTIEVTIDGNDEAARYVELAARFVAEQLGLEVEVEVE
B16: il2ra_site1_2b5i_sap_25_mot_e46e631880b6e8cfa39cf89b6d9ac203_0001_1_000000162_0001_19_34_H_._3abea1aeba1101aad97199a57a9882c4_0001_af2_0001_0000100002_0000001_0 … (protein)
chain: SSSSEEKYDEIDRLFNEALKLKQAGKKEEAKEKLEKALELAKEMGSEKIIKELEYFLELVSSSSS
B17: il2ra_site2_2erj_normal_mot_af86707857d369f3e1d85dcabc5f9321_0001_000000201_0001_14_29_H_._HHH_b2_03838_af2_0001_0000100002_0000001_0 (protein)
chain: SSSSSSSEEEEAKELTEEAKEIEDPDEALEVLSEAFVLAYRVGDHRLAAEVIELAHRLLSSSSSS
B18: il2ra_site2_3nfp_sap_27_mot_HHH_b1_00497_000000019_0001_1_17_H_._HHH_b1_02145_af2_0001_0000500022_0000001_0_0001 (protein)
chain: SSSSDKFEEYVEAALLLARRAEEDGDPEAAERMLEIALAAAEDIGNEELFEEIERLLRELRSSSS

Target: il2ra, P01589
Assay: yeast display titration

Apparent Kd, inactive:
B1 no binding seen
B2 no binding seen
B3 no binding seen
B4 no binding seen
B5 no binding seen
B6 no binding seen
B7 no binding seen
B8 no binding seen
B9 no binding seen
B10 no binding seen
B11 no binding seen
B12 no binding seen
B13 no binding seen
B14 no binding seen
B15 no binding seen
B16 no binding seen
B17 no binding seen
B18 no binding seen

Reprinted from above (2 entries):
Apparent Kd, inactive:
B10 no binding seen
B11 no binding seen
